# The whole screen tested about 260,000 compounds, of which about 1,500 (0.58%) were called active. This list was built around the results that the source calls inconclusive (neither active nor inactive); the mix of calls is not that of the screen.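 Rule for the calls: active = inhibition above a set limit at one or more doses, reproduced on every date tested; inconclusive = results disagree between test dates, or hit never tested in dose response; inactive = the rest.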
# Amino acid sequences for entries named in this document (tags omitted). A change or cut given only in a name is not applied to a line headed by its entry.
# UniProt P69720: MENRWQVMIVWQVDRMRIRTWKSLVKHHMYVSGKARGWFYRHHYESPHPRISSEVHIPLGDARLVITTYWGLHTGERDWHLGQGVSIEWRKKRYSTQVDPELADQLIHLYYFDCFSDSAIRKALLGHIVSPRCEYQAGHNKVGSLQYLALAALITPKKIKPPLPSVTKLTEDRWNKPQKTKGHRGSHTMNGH
# UniProt P69721: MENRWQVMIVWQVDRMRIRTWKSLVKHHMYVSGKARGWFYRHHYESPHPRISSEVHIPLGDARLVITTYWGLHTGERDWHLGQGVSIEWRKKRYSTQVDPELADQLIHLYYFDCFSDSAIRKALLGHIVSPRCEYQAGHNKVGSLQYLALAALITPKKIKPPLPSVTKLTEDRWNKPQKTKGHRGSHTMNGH
# UniProt P69722: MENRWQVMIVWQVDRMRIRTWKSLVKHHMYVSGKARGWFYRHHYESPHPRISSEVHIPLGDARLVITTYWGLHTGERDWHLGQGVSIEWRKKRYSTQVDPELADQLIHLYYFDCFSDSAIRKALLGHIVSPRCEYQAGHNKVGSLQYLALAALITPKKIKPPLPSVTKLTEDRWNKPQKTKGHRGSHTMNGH
# UniProt P69723: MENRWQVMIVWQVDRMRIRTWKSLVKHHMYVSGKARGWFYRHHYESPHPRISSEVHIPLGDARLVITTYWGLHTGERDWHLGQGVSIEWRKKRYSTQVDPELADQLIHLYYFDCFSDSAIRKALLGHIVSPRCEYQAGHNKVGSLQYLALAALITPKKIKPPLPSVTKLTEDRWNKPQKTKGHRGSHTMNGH
# UniProt Q9HC16: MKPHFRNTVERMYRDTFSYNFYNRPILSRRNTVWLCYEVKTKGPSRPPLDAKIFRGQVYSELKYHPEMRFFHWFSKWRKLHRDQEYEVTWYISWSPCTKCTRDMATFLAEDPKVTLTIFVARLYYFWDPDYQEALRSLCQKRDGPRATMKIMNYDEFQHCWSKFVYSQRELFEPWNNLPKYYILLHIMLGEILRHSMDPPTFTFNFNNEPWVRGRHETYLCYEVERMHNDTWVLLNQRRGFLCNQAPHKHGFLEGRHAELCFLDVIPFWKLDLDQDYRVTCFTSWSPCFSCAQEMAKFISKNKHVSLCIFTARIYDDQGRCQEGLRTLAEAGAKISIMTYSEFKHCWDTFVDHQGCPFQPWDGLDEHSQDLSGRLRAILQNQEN
# Molecular target: Virion infectivity factor (Human immunodeficiency virus type 1 group M subtype B (isolate BH10)) + Virion infectivity factor (Human immunodeficiency virus type 1 group M subtype B (isolate BRU/LAI)) + Virion infectivity factor (Human immunodeficiency virus type 1 group M subtype B (isolate PCV12)) + Virion infectivity factor (Human immunodeficiency virus type 1 group M subtype B (isolate HXB2)) + DNA dC->dU-editing enzyme APOBEC-3G (Homo sapiens) (UniProt P69720+P69721+P69722+P69723+Q9HC16)
# Experiment: inhibitors of Vif binding to APOBEC3G peptide, primary screen, biochemical, TR-FRET, GST-Vif 1-94, biotin-A3G peptide, dose response retest (AID 1117319);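 note: Vif residues 1-94 fused to GST binding biotinylated APOBEC3G peptide 110-148; 0% = full assay without inhibitor and 100% = GST in place of GST-Vif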
# Settings: hits give high values
row,Structure (SMILES),inhibition
1,COc1ccc(/C=N/NC(=O)CNC(=O)c2ccc(S(=O)(=O)N3CCOCC3)cc2)cc1OC,inconclusive: 35.6%
2,COc1cc(C2CC(=O)Nc3cc(C)c(C)cc32)cc(OC)c1OC (configuration not stated),inactive: -9.63%
3,O=C(c1cc(-c2ccncc2)nc2ccc(Cl)cc12)N1CCN(C(=O)C2CCCO2)CC1 (configuration not stated),inconclusive: 39.3%
4,Cc1nnsc1C(=O)Nc1ccccc1Cl,inconclusive: 50.1%
5,O=C(c1cc([N+](=O)[O-])ccc1N1CCOCC1)N1CCN(c2ccc([N+](=O)[O-])cc2)CC1,inactive: 11.3%
6,Cn1c(=O)c2cc3ccccc3nc2n(C)c1=O,inconclusive: 37.8%
7,O=C(CCCOc1ccc(Cl)cc1Cl)NNC(=O)C1CCC1,inconclusive: 38.2%
8,O=C1NC(c2ccccc2)=C(c2nc3ccccc3s2)C(c2ccc(O)cc2)N1 (configuration not stated),inconclusive: 35.2%
9,CC1CCCCN1S(=O)(=O)c1ccc2c(c1)CCN2C(=O)CCC(=O)O (configuration not stated),inconclusive: 54.9%
10,CCOc1ccc(-c2c(C(=O)N/N=C/c3ccc(C)cc3)nnn2-c2nonc2N)cc1,inconclusive: 33%
11,CCOC(=O)c1cc2sccc2n1CC(=O)N1CCCc2ccccc21,inactive: -4.99%
12,O=S(=O)(c1ccc2ncn(O)c2c1)N1CCOCC1,inconclusive: 55.5%
13,CCC/C(O)=C1\C(=O)CC(c2ccccc2)CC1=NC (configuration not stated),inconclusive: 35%
14,Cc1sc2nc(CN3CCN(c4ccc(O)cc4)CC3)[nH]c(=O)c2c1C,inconclusive: 43.9%
15,CC(=O)n1c2ccccc2c2nc(NC(C)C)sc21,inconclusive: 36%
16,CN(C)/C=C/c1c(C#N)c(=O)ncn1Cc1ccccc1,inconclusive: 39%
17,C/C=C/C(=O)Nc1cccc(C2=NOC3(C2)C[C@H](C(N)=O)N(C(=O)/C=C/C)C3)c1 (some centres not stated),inconclusive: 45%
18,Cc1ccc(NC(=O)CS(=O)CC(=O)NCCCN(C)c2ccccc2)cc1 (configuration not stated),inconclusive: 33.4%
19,COc1ccc(-c2csc(Nc3ccc(S(N)(=O)=O)cc3)n2)cc1,inconclusive: 36.4%
20,COC(=O)c1oc2ccc(OC)cc2c1N,inconclusive: 37.1%
21,CC(C)NC(=O)c1cc(-c2ccc(Br)cc2)on1,inconclusive: 62.5%
22,COc1ccccc1-c1cc(N)n(S(=O)(=O)c2ccc(F)c(C)c2)n1,inconclusive: 47.2%
23,Cc1c(Cl)ccc2c1NC(=O)[C@]21[C@@H]2C(=O)N(Cc3ccccc3)C(=O)[C@@H]2[C@@H]2CCCN21,inactive: 2.38%

row,Structure (SMILES),inhibition
1,CC(=O)Nc1ccc(S(=O)(=O)N2CCN(C(=O)Cc3ccccc3)CC2)cc1,inconclusive: 33%
2,O=C(Nc1ccc(-c2ccc3nncn3n2)cc1)C1CCCC1,inconclusive: 33.9%
3,CC1CCc2[nH]nc(C(=O)O)c2C1 (configuration not stated),inconclusive: 34.3%
4,CN1CCN(CC(O)(c2ccc(Cl)cc2)c2ccc(Cl)cc2)CC1,inconclusive: 62.7%
5,N#Cc1c2nc3ccccc3nc2n2cc(NC(=O)c3ccc(F)cc3)ccc12,inconclusive: 55.4%
6,CC(C)C(NC(=O)C1CCCCC1)C(=O)N1CCN(c2ccc(F)cc2)CC1 (configuration not stated),inconclusive: 38.6%
7,Cn1c(=O)n(C)c2cc(CNc3ccc(N4CCOCC4)c(C(=O)O)c3)ccc21,inconclusive: 47.6%
8,COc1ccccc1-c1nc(N)n[nH]1,inconclusive: 35.7%
9,Cc1c(C(N)=O)sc2ncn(CC(=O)OC(C)C)c(=O)c12,inconclusive: 39.3%
10,O=C1C(Cl)=C(N2CCOCC2)C(=O)N1c1ccc(Br)cc1,inactive: 12.4%
11,Cc1nn(-c2ccccc2)c(C)c1/C=N/NC(=O)c1cnccn1,inconclusive: 55.8%
12,C=CCn1c(SCC(=O)N(C)C2CCS(=O)(=O)C2)nc2ccccc2c1=O (configuration not stated),inconclusive: 38.5%
13,Cc1cc(C(=O)N2CCN(S(=O)(=O)c3ccc(C)c(C)c3)CC2)no1,inactive: 3.5%
14,COc1ccc(/C=C/C(=O)c2ccc(OC)cc2OC)cc1,inactive: -1.1%
15,C=CCSc1nnc(NC(=O)CSc2ccccn2)s1,inactive: -2.29%
16,O=C(NNc1ccc(F)cc1F)c1c(F)cccc1Cl,inconclusive: 51.6%
17,O=C(CSc1nc2c(cnn2-c2ccc(F)cc2)c(=O)[nH]1)N1CCCCCC1,inconclusive: 55%
18,O=C1NC(=S)NC1=Cc1ccc(O)cc1,inactive: 4.35%
19,O=c1c2cc(Br)ccc2nc(-c2cccc(C(F)(F)F)c2)n1O,inconclusive: 33.6%
20,COc1ccc(NC(=S)N2CCc3cc(OC)c(OC)cc3C2)cc1,inconclusive: 37.5%
21,Cc1ccc(S(=O)(=O)N2C(=O)CCC2C(=O)N2CCN(C)CC2)cc1 (configuration not stated),inconclusive: 35.2%
22,COc1cccc(CNc2ccc(N3CCCCC3)cc2)c1OC,inconclusive: 40.7%
23,Cc1nc(-c2ccccc2)cs1,inconclusive: 35%

row,Structure (SMILES),inhibition
1,O=c1cc(C(F)(F)F)[nH]c2c(C(F)(F)F)cccc12,inconclusive: 42.3%
2,O=C1C(c2ccc(F)cc2)N(Cc2ccc3c(c2)OCO3)C(=O)CN1C1CCCCCC1 (configuration not stated),inconclusive: 34.1%
3,COC(=O)CNc1ccc2c(c1)OCO2,inactive: 26.3%
4,O=C(O)c1cnc(-c2ccccc2)nc1Sc1ccc(Cl)cc1,inconclusive: 40%
5,O=C(/C(=C/O)N=Nc1ccc(Cl)cc1)c1ccncc1,inconclusive: 60.1%
6,CCOC(=O)c1sc(C)c(C(N)=O)c1NC1=NCCCCC1,inconclusive: 33.1%
7,O=C(COC(=O)c1ccc(Cl)c(S(=O)(=O)N2CCCCC2)c1)NCc1ccco1,inconclusive: 44.2%
8,COC(=O)C(C)Sc1nnc(Cc2cc(=O)[nH]c(=O)[nH]2)n1-c1ccc(OC)cc1 (configuration not stated),inactive: 7.85%
9,COC(=O)c1cc(NS(=O)(=O)c2ccc(NC(C)=O)cc2)ccc1Cl,inconclusive: 58%
10,CCn1c(-c2cc(OC)c(OC)c(OC)c2)n[nH]c1=S,inconclusive: 42.1%
11,Cc1ccc(OCC(=O)N/N=C2/SCC(=O)N2Cc2ccco2)cc1,inactive: 11.4%
12,CC(C)OC(=O)CCC(=O)Nc1nc2ccccc2s1,inconclusive: 47.5%
13,O=C(CN1CCCCC1)Nc1ccccc1,inconclusive: 38.9%
14,CC(C)OC(=O)c1cc(C(=O)c2cc(Cl)ccc2O)coc1=N,inconclusive: 43.6%
15,O=C(O)C1CCCCC1C(=O)Nc1nc(-c2cccs2)cs1 (configuration not stated),inactive: -11.2%
16,Nc1nc2cc(S(=O)(=O)N3CCOCC3)ccc2o1,inactive: -2.39%
17,O=C1[C@@H]2CSCN2C(=O)CN1Cc1ccc(F)cc1,inconclusive: 38.1%
18,Cc1ccc(C)c(-c2cc(C(=O)Nc3nccs3)c3ccccc3n2)c1,inconclusive: 46.9%
19,CC(C)C(CC(=O)NCc1ccco1)c1ccco1 (configuration not stated),inconclusive: 57.5%
20,O=C(Cc1ccccc1)N/N=C/c1ccccc1OCc1ccc(Cl)cc1,inconclusive: 34.7%
21,CCC(CO)Nc1ncnc2c1cnn2-c1ccc(OC)cc1 (configuration not stated),inconclusive: 40.7%
22,CC(C)(C)NCC(O)c1cc(O)cc(O)c1 (configuration not stated),inconclusive: 46.6%
23,CSc1ccc(C2C(C#N)=C(N)N(c3ccccc3)C3=C2C(=O)CCC3)cc1 (configuration not stated),inconclusive: 37.5%

# 6 entries from above, sorted by length of the SMILES, smallest number first:
row,Structure (SMILES),inhibition
3,COC(=O)CNc1ccc2c(c1)OCO2,inactive: 26.3%
15,O=C(O)C1CCCCC1C(=O)Nc1nc(-c2cccs2)cs1 (configuration not stated),inactive: -11.2%
1,O=c1cc(C(F)(F)F)[nH]c2c(C(F)(F)F)cccc12,inconclusive: 42.3%
20,O=C(Cc1ccccc1)N/N=C/c1ccccc1OCc1ccc(Cl)cc1,inconclusive: 34.7%
9,COC(=O)c1cc(NS(=O)(=O)c2ccc(NC(C)=O)cc2)ccc1Cl,inconclusive: 58%
7,O=C(COC(=O)c1ccc(Cl)c(S(=O)(=O)N2CCCCC2)c1)NCc1ccco1,inconclusive: 44.2%

# (continued)

row,Structure (SMILES),inhibition
1,COc1ccc2nc(NC(=O)C3CCN(S(=O)(=O)c4cnc[nH]4)CC3)sc2c1,inconclusive: 35.2%
2,CCOC(=O)N1CCN(C(=O)CCCn2c(=S)[nH]c3ccc(Br)cc3c2=O)CC1,inconclusive: 59.3%
3,COCON1C(=O)CN(C(C)=O)C1c1ccc(Cl)cc1Cl (configuration not stated),inconclusive: 42.1%
4,N=c1c2c(n(Cc3ccc(Br)cc3)c3c1CCC3)CCCC2,inconclusive: 63.7%
5,O=C(Nc1nc(-c2ccccn2)cs1)c1ccc(S(=O)(=O)N2CCCCC2)cc1,inconclusive: 46.1%
6,COCCN1C(=O)N[C@@H](c2ccc(Br)cc2)C(C(=O)OC)=C1C,inconclusive: 40.7%
7,CCOC(=O)C1=C(O)/C(=C\c2cccs2)N=C1C,inactive: 15.1%
8,COc1ccccc1C(O)(C(=O)NN(C(=O)c1ccccc1)c1ccccc1C)c1cccs1 (configuration not stated),inconclusive: 56.7%
9,CC(C)N(C1=N/C(=C\c2ccco2)C(=O)N1c1ccccc1)C(C)C,inconclusive: 40%
10,N#Cc1cc(-c2ccccc2)oc1/N=C/c1ccccc1O,inconclusive: 60.2%
11,O=C(Cc1ccccc1)Nc1ccc(N2CCN(Cc3ccccc3F)CC2)cc1,inactive: 6.73%
12,Cc1ccsc1/C=N/NC(=O)c1ccco1,inconclusive: 37.4%
13,O=C(NCCN1CCOCC1)C1CCC(=O)N1Cc1ccc(F)cc1 (configuration not stated),inconclusive: 34.2%
14,CC(=O)NCCc1nc2ccccc2n1Cc1ccc(C)cc1,inconclusive: 44.8%
15,COc1ccc(N2CCN(C(=O)CSc3ccccc3N)CC2)cc1,inconclusive: 32.3%
16,CNc1ccc(Br)cc(C(=O)/C=C/c2cccc(Cl)c2Cl)c1=O,inconclusive: 62.7%
17,COc1ccc(OC)c(NC=C2C(=O)OC(C)(C)OC2=O)c1,inconclusive: 53.9%
18,Cc1ccc2nc(C)c(C)nc2c1N,inconclusive: 1.84%
19,CCOC(=O)c1ccc(S(=O)(=O)NNC(=O)c2cccc(N(C)C)c2)cc1,inconclusive: 34.9%
20,O=C(Nc1ccc2cn[nH]c2c1)c1ccc(S(=O)(=O)N2CCOCC2)cc1,inconclusive: 35.3%
21,COc1ccc(NC(=O)c2ccc(CNS(=O)(=O)c3cccc(OC)c3)cc2)cc1,inconclusive: 37.2%
22,Cc1ccc(NC(=O)CSc2nnc3ccccn23)cc1S(=O)(=O)N1CCOCC1,inconclusive: 40.8%
23,CN(C)C1=C(Cl)C(=O)N(c2ccc(Cl)c(Cl)c2)C1=O,inconclusive: 43.7%

# As a working copy, two of the compounds above:
row,Structure (SMILES),inhibition
8,COc1ccccc1C(O)(C(=O)NN(C(=O)c1ccccc1)c1ccccc1C)c1cccs1 (configuration not stated),inconclusive: 56.7%
9,CC(C)N(C1=N/C(=C\c2ccco2)C(=O)N1c1ccccc1)C(C)C,inconclusive: 40%

# — PubChem BioAssay AID1117319 (Southern Research Institute, 2015)
